Here are results for four molecules from patent US20240084005A1 (ALLAKOS, published 2024).

By UniProt entry, the sequences of proteins in these tests, tags left out. Where a name states a change or a piece, a line headed by the entry shows the natural chain unless it says otherwise.
UniProt O43699: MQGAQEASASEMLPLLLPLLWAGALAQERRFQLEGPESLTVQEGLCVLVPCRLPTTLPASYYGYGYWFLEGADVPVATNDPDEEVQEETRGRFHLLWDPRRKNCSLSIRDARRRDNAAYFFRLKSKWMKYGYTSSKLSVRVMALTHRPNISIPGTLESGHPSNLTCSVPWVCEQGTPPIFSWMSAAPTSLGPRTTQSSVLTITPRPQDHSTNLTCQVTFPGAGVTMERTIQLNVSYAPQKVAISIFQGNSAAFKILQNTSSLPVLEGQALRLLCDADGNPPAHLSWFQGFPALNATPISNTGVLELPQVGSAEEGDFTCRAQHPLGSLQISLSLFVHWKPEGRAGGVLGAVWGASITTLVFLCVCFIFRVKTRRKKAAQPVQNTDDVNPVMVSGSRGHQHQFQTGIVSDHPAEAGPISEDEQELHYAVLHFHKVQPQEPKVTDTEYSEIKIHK

The target in experiment [1] is T1, Siglec-6 ECD Fc protein (human, UniProt O43699 27-347).
T1 construct: also called Siglec-6 full ECD fused to a human Fc; not shown: human Fc
The experiment in a line: domain-mapping ELISA; domain 2 binders bound full ECD-Fc and domains 1 and 2-Fc.

Experiment [2] deals with Siglec-6 domains 1 and 2 fused to a human Fc (human) (UniProt O43699). The experiment is described as above.
The target in experiment [3] is Siglec-6 (antigen of Example 8) (human, UniProt O43699 27-347, limits assumed). The experiment in a line: BLI, monovalent Fab. In general terms: BLI is a label-free optical method that tracks binding on a fibre tip over time.

Numbering of substitutions follows the chain as printed. Results are given in words; binding and its absence hold for the method and conditions named. Some entries that bind do so weakly or less than the wild type.

B1: AK11 (antibody, V domains shown)
VH: EVMLVESGGGLVKPGGSLKLSCAASGFSFSTYVMSWVRQTPEKRLEWVASISGGGSNTYYPDSVKGRFTISRDNAKNTLYLQMSSLRSEDTALYYCARREVVVYWYFDVWGTGTTVTVSS
VL: DIQMTQSPASLSVSVGETVTITCRASENIYSNLAWYQQKQGKSPQLLVFSAKNLADGVPSRFGGSGSGTQYSLKINSLQSEDFGTYYCQHFWGTPLTFGAGTKLELK
notes: also called anti-Siglec-6 mAb AK11
As to B1, the binding result in experiment [1] and in experiment [2] was “binds” each time.

B2: AK19 Fab (Fab, V domains shown)
VH: QVQLQESGPGLVKPSETLSLTCTVSGFSLTSYGVSWIRQPPGKGLEWIGVIWHDGSTSYHSTLISRVTISRDTSKNQVSLKLSSVTAADTAVYYCASDGYSGTFAYWGQGTLVTVSS
VL: QIVVTQSPATLSLSPGERATLSCTASSSVSSSYLHWYQQKPGQAPRLLIYSTSILASGIPARFSGSGSGTDFTLTISSLQPEDFAVYYCHQYHRSPYTFGQGTKLEIK
Turning to B2, the binding result in experiment [3] is on record as “binds”.

B3: AK20 Fab (Fab, V domains shown)
VH: B2 VH with S61P, T62S, I64K
VL: B2 VL
Consider B3, for which the binding entry in experiment [3] is “binds”.

B4: AK21 Fab (Fab, V domains shown)
VH: B2 VH with T30S, S58N, H60N, S61P, T62S, I64K
VL: B2 VL
In the case of B4, the binding entry in experiment [3] is “binds”.
